42 molecules from the supplement of paper PMC8166895 can be followed below.

Molecules are shown by their SMILES. “And” between values parts separate entries of the source, which are not always exact repeats. Equal values may be shown once. Where a name gives a salt, the structure may show the parent alone. This is one part of the list. Most values lie at the level of the controls, where differences are scatter.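 A single-replicate pilot screen of approved drugs and clinical or known-target compounds measured melting temperature via differential scanning fluorimetry. Top stabilizing hits raised the melting point by 2 °C or more; negative shifts indicate destabilization.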

The experiment has as its system SARS-CoV-2 main protease (Mpro, nsp5). In words: thermal shift ΔTm of Mpro relative to plate average Tm; higher = stronger thermal stabilization of Mpro (binding). The note with it: 10 µM; protein concentration 1 µM.
Regarding `O=C(O)c1ccc(-n2nc(-c3ccccc3O)nc2-c2ccccc2O)cc1` [Deferasirox], the “thermal shift ΔTm of Mpro” value is -0.021 °C.
For `O=C1CN(CCN2CC(=O)N(CN3CCOCC3)C(=O)C2)CC(=O)N1CN1CCOCC1` [Bimolane] the value was -0.121 °C; for `N#CCCCSC(=N)N` [Kevetrin hydrochloride], 0.207 °C.
Take `COC(=O)CCc1ccc(OCC(O)CNC(C)C)cc1` (configuration not stated) [Esmolol HCl]: the “thermal shift ΔTm of Mpro” value was -0.0583 °C.
For `COC(=O)CCc1ccc(OCC(O)CNC(C)C)cc1` (configuration not stated) [Esmolol hydrochloride] the value was 0.0562 °C; for `O=C(NCc1cccc(O)c1)Nc1nc(-c2ccncc2)cs1`, 0.37 °C.
With `COc1cc(C(=O)NC2CCN(C)CC2)ccc1Nc1ncc2c(n1)N(C1CCCC1)CC(F)(F)C(=O)N2C`, the “thermal shift ΔTm of Mpro” value is -0.0889 °C.
For `COCCOC(=O)C1=C(C)NC(C)=C(C(=O)OC(C)C)C1c1cccc([N+](=O)[O-])c1` (configuration not stated) [Nimodipine] the value was -0.156 °C; for `NCCS` [Cysteamine HCl], -0.089 °C.
For `COc1c(C)c2c(c(O)c1C/C=C(\C)CCC(=O)OCCN1CCOCC1)C(=O)OC2` [Mycophenolate Mofetil] the value was 0.443 °C; for `CN1C(C(=O)Nc2ccccn2)=C(O)c2ccccc2S1(=O)=O` [Piroxicam], -0.156 °C; for `C[C@]12CCC(=O)C=C1C=C[C@@H]1[C@@H]2CC[C@@]2(C)[C@H]1CC[C@@]21CCC(=O)O1` [Canrenone], 0.193 °C.
For `CC1(C)CC(=O)c2c(C(F)(F)F)nn(-c3ccc(C(N)=O)c(N[C@H]4CC[C@H](OC(=O)CN)CC4)c3)c2C1` the value was -0.000838 °C and 0.0214 °C; for `CC1(C)[C@@H](O)CC[C@]2(C)[C@H]3C(=O)C=C4[C@@H]5C[C@@](C)(C(=O)O)CC[C@]5(C)CC[C@@]4(C)[C@]3(C)CC[C@@H]12` [Enoxolone], -0.439 °C; for `Cc1nc2ccc(NC(=O)CCNC(=O)CCCc3ccc(CC(C(=O)O)C(=O)O)cc3)cc2s1`, 0.145 °C.
`Nc1ccncc1N` [Amifampridine]: the “thermal shift ΔTm of Mpro” value came to 0.305 °C.
For `Nc1ccccc1NC(=O)CCCCCC(=O)Nc1ccccc1` the value was 0.132 °C; for `C[C@H]1COC2(CCN(c3nc(=O)c4cc(C(F)(F)F)cc([N+](=O)[O-])c4s3)CC2)O1` (racemic) [BTZ043 Racemate], 0.169 °C.
In the case of `CCCNC(C)C(=O)Nc1c(C)csc1C(=O)OC` (configuration not stated) [Articaine HCl], the “thermal shift ΔTm of Mpro” value came to 0.148 °C.
Regarding `CNCc1ccc(-c2[nH]c3cc(F)cc4c3c2CCNC4=O)cc1` [Rucaparib], the “thermal shift ΔTm of Mpro” value turned out to be 0.202 °C.
Regarding `CNCc1ccc(-c2[nH]c3cc(F)cc4c3c2CCNC4=O)cc1`, the “thermal shift ΔTm of Mpro” value came out at 0.238 °C.
For the molecule `COc1cccc(N(C)C(=S)Oc2ccc3c(c2)CCCC3)n1` [Liranaftate], the “thermal shift ΔTm of Mpro” value is -0.0601 °C.
With `CC(=O)C1=C(O)C=C2Oc3c(C(C)=O)c(O)c(C)c(O)c3C2(C)C1=O` (single isomer, unassigned; (+)) [(+)-Usniacin], the “thermal shift ΔTm of Mpro” value was 0.0194 °C.
As to `CCNC(=O)c1noc(-c2cc(C(C)C)c(O)cc2O)c1-c1ccc(CN2CCOCC2)cc1`, the “thermal shift ΔTm of Mpro” value was -0.0895 °C.
For `Cc1cnc(-c2cnc(NCCNc3ccc(C#N)cn3)nc2-c2ccc(Cl)cc2Cl)[nH]1` the value was 0.145 °C and 0.308 °C; for `O=C(O)c1cc2cccc([N+](=O)[O-])c2[nH]1`, 0.0142 °C.
On to `COc1ccc(CCc2nc3cc(-c4c(C)noc4C)ccc3n2C[C@H](C)N2CCOCC2)cc1Cl`, for which the “thermal shift ΔTm of Mpro” value is -0.067 °C.
As for `CC(=O)C1(O)CCC2(O)C3(O)CC=C4CC(O)CCC4(C)C3CC(OC(=O)c3ccc(O)cc3)C12C` (configuration not stated) [Qingyangshengenin], the “thermal shift ΔTm of Mpro” value was -0.0652 °C.
With `Cc1c(NC(=O)OC[C@@H]2COCCN2)cn2ncnc(Nc3ccc4c(cnn4Cc4cccc(F)c4)c3)c12`, the “thermal shift ΔTm of Mpro” value was found to be 0.115 °C.
For `O=C(c1ccc(-c2ccc(Cl)cc2)o1)N(Cc1ccccn1)c1ccc(N2CCNCC2)cc1` [MK2-IN-1 hydrochloride] the value was 0.111 °C; for `Cc1ccc2nc(NCCN)c3ncc(C)n3c2c1`, -0.16 °C.
For `CC(C)(C)c1cc(C=C(C#N)C#N)cc(C(C)(C)C)c1O` [Tyrphostin 9] the value was 1.09 °C; for `NCCC(O)(P(=O)(O)O)P(=O)(O)O` [Pamidronate disodium salt], 0.193 °C.
For `CC(C[N+](C)(C)C)OC(N)=O` (configuration not stated) [Bethanechol chloride], the “thermal shift ΔTm of Mpro” value was -0.0596 °C.
In the case of `O=C(O)c1nn(Cc2ccc(Cl)cc2Cl)c2ccccc12` [Lonidamine], the “thermal shift ΔTm of Mpro” value was -0.016 °C.
For `Cc1c(C2=CCN(C(=O)N(C)C(C)C)CC2)nnn1-c1cccnc1F`, the “thermal shift ΔTm of Mpro” value was -0.00376 °C.
Take `Cc1cc(C(C#N)c2ccc(Cl)cc2)c(Cl)cc1NC(=O)c1cc(I)cc(I)c1O` (configuration not stated) [Closantel Sodium]: the “thermal shift ΔTm of Mpro” value amounted to 1.01 °C.
For `Cc1cc(C(C#N)c2ccc(Cl)cc2)c(Cl)cc1NC(=O)c1cc(I)cc(I)c1O` (configuration not stated) [Closantel] the value was 1.07 °C.
In the case of `CCCCCCCCCCOc1cc2c(O)c(C(=O)OCC)cnc2cc1OCC` [Decoquinate], the “thermal shift ΔTm of Mpro” value came to 0.0875 °C.
For `COc1ccc2c(c1)C(=O)N(CCc1ccc(S(=O)(=O)NC(=O)NC3CCCCC3)cc1)C(=O)C2(C)C` [Gliquidone] the value was 0.0529 °C; for `C=CCc1ccc(O)c(-c2cc(CC=C)ccc2O)c1` [Magnolol], 0.213 °C; for `CC(=N)NCc1cccc(CN)c1` [1400W dihydrochloride], 0.0491 °C.
